Results published in patent publication US20260109761A1.
Numbering of substitutions follows the chain as printed. No constants are given. Whether binding was seen depends on the method and setting. Some results given as binding are weak or reduced against the parent protein; the word gives no strength.

Amino acid sequences for entries named in this document (tags omitted).
UniProt Q95KA5: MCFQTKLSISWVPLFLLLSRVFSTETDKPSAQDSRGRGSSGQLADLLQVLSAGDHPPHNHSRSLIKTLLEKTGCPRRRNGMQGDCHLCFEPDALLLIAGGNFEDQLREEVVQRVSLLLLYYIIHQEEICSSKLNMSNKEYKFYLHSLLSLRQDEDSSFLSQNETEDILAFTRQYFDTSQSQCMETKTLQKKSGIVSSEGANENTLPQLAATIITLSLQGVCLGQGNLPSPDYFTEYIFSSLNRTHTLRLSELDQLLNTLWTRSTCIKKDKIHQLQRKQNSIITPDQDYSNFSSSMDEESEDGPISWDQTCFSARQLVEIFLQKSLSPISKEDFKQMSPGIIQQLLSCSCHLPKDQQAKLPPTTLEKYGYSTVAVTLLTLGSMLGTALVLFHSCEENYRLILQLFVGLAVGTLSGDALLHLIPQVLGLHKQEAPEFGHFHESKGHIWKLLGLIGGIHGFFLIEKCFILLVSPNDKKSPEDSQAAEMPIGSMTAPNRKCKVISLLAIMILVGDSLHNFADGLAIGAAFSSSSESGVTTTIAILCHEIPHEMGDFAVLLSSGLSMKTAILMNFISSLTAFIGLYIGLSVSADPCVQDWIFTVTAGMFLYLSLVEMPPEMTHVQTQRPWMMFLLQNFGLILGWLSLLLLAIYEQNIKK

B1: H3_W99H_L1 (antibody, V domains shown)
VH: QVQLVESGGGVVQPGRSLRLSCAASGFTFSDYGMHWVRQAPGKGLEWVAYISSGGTTIYYADTVKGRFTISRDNSKNTLYLQMNSLRAEDTAVYYCARHTNLYAMDYWGQGTTVTVSS
VL: DIVLTQSPDSLAVSLGERATINCRASKSVSTQGYSYMHWYQQKPGQPPKFLIYLASNLESGVPDRFSGSGSGTDFTLTISSLQAEDVAVYYCQHSREVPYTFGGGTKVEIKR
B2: 51B12 parent (antibody, V domains shown)
VH: B1 VH with H99W
VL: B1 VL with Q32S
B3: H2_T57H_L1 (antibody, V domains shown)
VH: B1 VH with T57H, H99W
VL: B1 VL
B4: H2_Y60K_L1 (antibody, V domains shown)
VH: B1 VH with Y60K, H99W
VL: B1 VL
B5: H2_T63Y_L1 (antibody, V domains shown)
VH: B1 VH with T63Y, H99W
VL: B1 VL
B6: H2_K65P_L1 (antibody, V domains shown)
VH: B1 VH with K65P, H99W
VL: B1 VL
B7: H2_G66Q_L1 (antibody, V domains shown)
VH: B1 VH with G66Q, H99W
VL: B1 VL
B8: H3_M105P_L1 (antibody, V domains shown)
VH: B1 VH with H99W, M105P
VL: B1 VL
B9: 51B12_VH_L1 (antibody, V domains shown)
VH: B1 VH with H99W
VL: B1 VL
B10: H2_T57H_L2 (antibody, V domains shown)
VH: B1 VH with T57H, H99W
VL: B1 VL with Q32S, L58K
B11: H2_Y60K_L2 (antibody, V domains shown)
VH: B1 VH with Y60K, H99W
VL: B1 VL with Q32S, L58K
B12: H2_G66Q_L2 (antibody, V domains shown)
VH: B1 VH with G66Q, H99W
VL: B1 VL with Q32S, L58K
B13: H2_T57H_VL-par (antibody, V domains shown)
VH: B1 VH with T57H, H99W
VL: B1 VL with Q32S
B14: H2_Y60K_VL-par (antibody, V domains shown)
VH: B1 VH with Y60K, H99W
VL: B1 VL with Q32S
B15: H2_T63Y_VL-par (antibody, V domains shown)
VH: B1 VH with T63Y, H99W
VL: B1 VL with Q32S
B16: H2_G66Q_VL-par (antibody, V domains shown)
VH: B1 VH with G66Q, H99W
VL: B1 VL with Q32S
B17: H2_T56H_L1 (antibody, V domains shown)
VH: B1 VH with T56H, H99W
VL: B1 VL
B18: H2_T56H_L2 (antibody, V domains shown)
VH: B1 VH with T56H, H99W
VL: B1 VL with Q32S, L58K
B19: H2_T63Y_L2 (antibody, V domains shown)
VH: B1 VH with T63Y, H99W
VL: B1 VL with Q32S, L58K
B20: H3_M105P_VL-par (antibody, V domains shown)
VH: B1 VH with H99W, M105P
VL: B1 VL with Q32S
B21: H2_K65P_L2 (antibody, V domains shown)
VH: B1 VH with K65P, H99W
VL: B1 VL with Q32S, L58K
B22: H3_M105P_L2 (antibody, V domains shown)
VH: B1 VH with H99W, M105P
VL: B1 VL with Q32S, L58K
B23: 51B12_VH_L2 (antibody, V domains shown)
VH: B1 VH with H99W
VL: B1 VL with Q32S, L58K
B24: H2_T56H_VL-par (antibody, V domains shown)
VH: B1 VH with T56H, H99W
VL: B1 VL with Q32S
B25: H2_K65P_VL-par (antibody, V domains shown)
VH: B1 VH with K65P, H99W
VL: B1 VL with Q32S
B26: H3_W99H_VL-par (antibody, V domains shown)
VH: B1 VH
VL: B1 VL with Q32S
B27: H3_W99H_L2 (antibody, V domains shown)
VH: B1 VH
VL: B1 VL with Q32S, L58K

Molecular target: cynomolgus monkey ZIP12-ECD-GST (cynomolgus monkey) (UniProt Q95KA5)
Assay: SPR single cycle kinetics, mAb captured on protein A

Row | Binder | binding
1 | B1 | binds

Molecular target: huZIP12-ECD-GST (human) (UniProt Q504Y0)
Assay: as above

Row | Binder | binding
2 | B1 | binds

Molecular target: ZIP12 full length protein over-expressed on CHO-Ki cells (Homo sapiens (Human)) (UniProt Q504Y0)
Assay: flow cytometry, Alexa Fluor 647: CHO cells over-expressing human ZIP12 (CHO-hZip12) against CHO parent cells

Row | Binder | binding
3 | B2 | binds

Molecular target: huZIP12-ECD-GST (human) (UniProt Q504Y0)
Assay: HTRF competition: unlabelled antibody against Tb-labelled 51B12-parent on hZIP12-ECD-GST, detected with anti-GST-XL665

Row | Binder | binding
4 | B2 | binds

Molecular target: ZIP12 full length protein over-expressed on CHO-Ki cells (Homo sapiens (Human)) (UniProt Q504Y0)
Assay: flow cytometry on CHO-Ki cells over-expressing ZIP12

Row | Binder | binding
5 | B2 | binds

Molecular target: huZIP12-ECD-GST (human) (UniProt Q504Y0)
Assay: SPR single cycle kinetics, mAb captured on protein A, 3.12-800 nM huZIP12-ECD-GST

Row | Binder | binding
6 | B3 | binds
7 | B4 | binds
8 | B5 | binds
9 | B6 | binds
10 | B7 | binds
11 | B8 | binds
12 | B9 | binds
13 | B10 | binds
14 | B11 | binds
15 | B12 | binds
16 | B13 | binds
17 | B14 | binds
18 | B15 | binds
19 | B16 | binds
20 | B17 | binds
21 | B18 | binds
22 | B19 | binds
23 | B20 | binds
24 | B21 | binds
25 | B22 | binds
26 | B23 | binds
27 | B24 | binds
28 | B25 | binds
29 | B1 | binds
30 | B26 | binds
31 | B27 | binds

Molecular target: huZIP12-ECD-GST (human) (UniProt Q504Y0)
Assay: summary of the three screening assays of the affinity-matured clones (one is the HTRF inhibition assay; the excerpt does not name the other two)

Row | Binder | binding
32 | B26 | binds
